Library screen at single concentrations

By UniProt entry, the sequences of proteins in these tests, tags left out. Residues count along the entry.
UniProt Q4DA54, 1-478: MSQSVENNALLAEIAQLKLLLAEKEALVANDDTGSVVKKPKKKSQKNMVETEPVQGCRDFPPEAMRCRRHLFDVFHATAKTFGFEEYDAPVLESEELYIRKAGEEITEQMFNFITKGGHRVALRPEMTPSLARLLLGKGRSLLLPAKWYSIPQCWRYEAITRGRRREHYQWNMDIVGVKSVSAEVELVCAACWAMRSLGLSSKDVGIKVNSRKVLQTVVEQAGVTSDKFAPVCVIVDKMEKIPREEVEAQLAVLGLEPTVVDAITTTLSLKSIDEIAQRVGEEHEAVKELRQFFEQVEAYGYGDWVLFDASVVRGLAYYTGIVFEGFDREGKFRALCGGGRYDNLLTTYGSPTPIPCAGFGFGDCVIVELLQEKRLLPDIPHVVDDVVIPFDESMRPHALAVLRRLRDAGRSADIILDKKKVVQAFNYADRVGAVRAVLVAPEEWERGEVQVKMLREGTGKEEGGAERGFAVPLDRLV
UniProt P9WPC5, whole entry: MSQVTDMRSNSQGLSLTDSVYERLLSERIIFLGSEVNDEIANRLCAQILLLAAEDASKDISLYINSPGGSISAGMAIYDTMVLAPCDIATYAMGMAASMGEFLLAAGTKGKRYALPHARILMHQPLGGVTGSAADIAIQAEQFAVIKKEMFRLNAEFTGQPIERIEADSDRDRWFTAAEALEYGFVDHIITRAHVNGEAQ
UniProt P9WPC3, whole entry partner: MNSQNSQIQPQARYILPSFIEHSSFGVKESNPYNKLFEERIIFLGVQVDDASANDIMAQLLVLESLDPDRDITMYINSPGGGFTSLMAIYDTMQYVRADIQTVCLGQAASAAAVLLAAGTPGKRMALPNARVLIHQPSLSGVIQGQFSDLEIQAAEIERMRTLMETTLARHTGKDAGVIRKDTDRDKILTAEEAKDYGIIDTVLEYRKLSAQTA

TcHisRS: 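Enzyme assay of histidyl-tRNA synthetase; the read-out is not stated. Target: Histidine-tRNA ligase, Trypanosoma cruzi CL Brener (UniProt Q4DA54). Tested at 30 µM. Direction is inferred from retests: higher values go with stronger inhibition. Size under these conditions: about 69,000 compounds, about 31 of them at 50% or above in at least one test.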
ClpP1P2: 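Protease assay of ClpP1P2, read by the AMC dye that it sets free. Target: ClpP1P2, Mycobacterium tuberculosis (UniProt P9WPC5 and UniProt P9WPC3). Tested at 50 µM. Direction is inferred from only a few compounds that gave an IC50; most scored high, so higher reads as stronger inhibition. Most other retested compounds had strongly negative values. About 69,000 compounds were tested under these conditions; 0.015% (about 10) showed 50% or more at least once.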

Each number is a percent effect as filed. The record does not define 0% and 100%; most values in the screen are far below 50% and negative numbers occur (in some assays of this library far below -100). This is an unselected part of the compounds tested.

Compound | TcHisRS | ClpP1P2
O=C(NC[C@H]1OC[C@@H]2CN(Cc3ccco3)CC[C@@H]21)c1cccnc1 | 6.03% | -5.538%
CSc1ccc(CNC(=O)C2CC(=O)N(C(C)(C)C)C2)cc1 (centres unmarked) | 8.901% | 4.23%
O[C@@H]1CN(Cc2cnccn2)C[C@H]1Oc1ccccc1 | 12.17% | -4.332%
CNC(=O)C1(C)CN(c2nc(C)cc(C)n2)CCO1 (centres unmarked) | -0.3759% | 20.74%
O=C(c1cscn1)N1CC[C@]2(C[C@@H](OCCN3CCCC3)CO2)C1 | 4.918% | 19.52%
CS(=O)(=O)c1cc(Cl)cnc1C1CCCN(C(=O)C2CCOCC2)C1 (centres unmarked) | 0.3831% | -26.26%
Cc1csc(CNC(=O)NC2CCCc3c2cnn3CCO)n1 (centres unmarked) | 5% | 5.404%
CC(=O)NC1CCCN(C(=O)Nc2cnc3c(cnn3C(C)C)c2)C1 (centres unmarked) | 1.916% | 16.62%
COc1ccccc1CCC(=O)N1CCCC(OCc2cccnc2)C1 (centres unmarked) | -0.4484% | -10.06%
Cc1noc(C)c1CN1CC[C@H]2OCC[C@@]2(C(=O)N2CCCC2)C1 | 10.92% | 7.552%
COCc1ncc(CN(Cc2ccco2)C(C)C(C)C)cn1 (centres unmarked) | 7.212% | -11.8%
C1CCC(c2nnc3sc(C4CCCO4)nn23)C1 (centres unmarked) | -2.488% | 15.48%
CNS(=O)(=O)c1cccc(C(C)NCc2ccncc2)c1 (centres unmarked) | 3.448% | -0.4416%
CC(CNC(=O)NCc1ccco1)N1CCc2sccc2C1 (centres unmarked) | -1.754% | 1.306%
CCC[C@@H]1CN(S(=O)(=O)c2ccc(C)c(F)c2)C[C@H]1N(C)C | 2.075% | -32.84%
CN1CC(Oc2ccc(Cl)cc2)=NC(SCC(=O)c2ccccc2)=N1 | 6.878% | 13.67%
COc1ncc(NCc2cc(C#N)cs2)cc1C(N)=O | 3.867% | -88.94%
Cc1nc(CN(C)C2CCN(CCn3cc(C#N)cn3)C2)no1 (centres unmarked) | 2.006% | -30.41%
COCC1CN(c2ncc(F)cn2)Cc2cnn(C)c21 (centres unmarked) | 1.105% | -11.12%
CC(C)(CNc1ccccc1S(=O)(=O)C(F)F)N1CCOCC1 | 7.937% | 8.313%
CC(C)N1CCc2c(CN(C)Cc3ccco3)cncc2C1 | 4.865% | -3.459%
Cc1cc(F)c(S(=O)(=O)Nc2ccn(CCCC#N)n2)cc1F | 3.659% | -5.161%
O=C(CCNc1ncccn1)N1CCC(Nc2cccnn2)CC1 | 5.202% | -33.14%
CC(C)Oc1ccccc1C1CC(=O)Nc2nc(N3CCOCC3)sc21 (centres unmarked) | 1.242% | -310.7%
CN(Cc1ccccc1)S(=O)(=O)N1C[C@H](C2CC2)[C@@H](N)C1 | 1.587% | -6.95%
CCCc1cnc(C)nc1N1CCC(Cn2cc(C(C)O)nn2)CC1 (centres unmarked) | 5.579% | 3.74%
CCN1CCN(c2nc(C(C)C)nc3c(C)nn(CC)c23)CC1 | 7.531% | -9.881%
CCS(=O)(=O)NC(C(=O)NC)c1ccc(F)c(F)c1 (centres unmarked) | 0.5348% | -4.667%
CC(C)c1nc(CCN(C)c2nccc(N3CCCC(O)C3)n2)no1 (centres unmarked) | 10.45% | -1.138%
Cc1ccoc1-c1nnc(CN2CCn3c(nnc3C(C)C)C2)o1 | 3.39% | -29.13%
CCc1cc(=O)[nH]c(-c2ccc(NC(C)CN3CCOCC3)nc2)n1 (centres unmarked) | 4.762% | -1.094%
CC1(C(=O)NCCc2ccc(F)cc2)CCOCC1 | 0.5917% | -2.665%
C[C@]1(O)CCN(Cc2cncs2)C[C@@H]1Oc1cccc(F)c1 | 5.376% | -4.947%
CCn1cc(CN2CCCC(CO)(CCc3ccccc3)C2)c(C)n1 (centres unmarked) | -0.8475% | -15.35%
CCc1nsc(N2CCN(Cc3ccno3)CC2)n1 | 3.185% | 5.326%
CN1CC(=O)N(c2cnn(C)c2)CC12CCN(Cc1cccs1)C2 (centres unmarked) | 7.018% | -9.121%
CCOc1ccccc1CSCCn1nc2ccccn2c1=O | 2.521% | -24.85%
c1cnc(N2CCO[C@H]3CN(CC4CC4)C[C@H]32)nc1 | 2.804% | -11.51%
CCOCc1ccc(NC(=O)C(C)C)cc1 | -1.538% | -4.968%
C[C@H]1CN(C(=O)c2cscn2)C[C@@]12CCN(c1ccsc1)C2=O | -5.882% | -2.813%
O=C(c1cccs1)N1C[C@H]2CCC[C@@]2(COCC2CCOCC2)C1 | 2.521% | 5.758%
Cc1cnn(CC2CCCN2C(=O)c2nccnc2N)c1 (centres unmarked) | 3.207% | -58.47%

Once more, the final 2:

* O=C(c1cccs1)N1C[C@H]2CCC[C@@]2(COCC2CCOCC2)C1 | TcHisRS: 2.521%; ClpP1P2: 5.758%
* Cc1cnn(CC2CCCN2C(=O)c2nccnc2N)c1 (centres unmarked) | TcHisRS: 3.207%; ClpP1P2: -58.47%

Data taken from ChEMBL document CHEMBL3988442, “University of Dundee, Small-Polar-MMV Screening Library” (2021).